Test results taken from US6686450B1, “Immunosuppressive agents that inhibit calcineurin function and uses of these agents” (Massachusetts Institute of Technology, priority 1998, dated 2004).
“Also recorded” adds a separate entry of the source. At least one structure is not confirmed: it was looked up by name or label, or the drawing left a doubt.

How the values were obtained:
IL-2 promoter = IL-2 promoter luciferase reporter gene assay in Jurkat T cells; type: cell-based; conditions: PMA and ionomycin
[1] = target: T1, interaction between Cabin 1-14 and full length calcineurin β2 (H160N) (Homo sapiens, UniProt P16298, H160N); assay: mammalian two-hybrid assay in Jurkat T cells (luciferase reporter); type: cell-based; conditions: rapamycin added with FK506
T1 construct: expressed in transfected cells; host or cells: Jurkat T cells
Text: A mammalian two-hybrid system was established in Jurkat T cells by fusing calcineurin with the Gal4 DNA binding domain and Cabin 1-14 with the VP16 activation domain (Hsu et al., Proc. Natl. Acid Sci. USA 91:3181-3185 (1994)). The fusion plasmids for mammalian two-hybrid assays were constructed as follows: The cDNAs of calcineurin Aβ2 wild type and H160N mutant were fused to the GAL4 DB in the pM vector (obtained from Clontech, Palo Alto, Calif.) (pMCNβ2 and PMCNβ2 (H160N), and the cDNA of Cabin 1-14 was fused to the VP16 AD in the pVP16 vector (pVPCabin 1-14). Jurkat T cells were transfected with 5 μg of pMCβ2 or pMCβ2 (H160N), 5 μg of pVPCabin 1-14, 1 μg of pCMV-βGal, and 2 μg of pg5Luc, a luciferase reporter plasmid containing GAL4 promoter, by electroporation (960 μF, 250V). After 48 hr, cells were stimulated with 40 nM PMA and 2.5 μM ionomycin, either alone or in combination, for 6 hr before luciferase activity was measured for each sample. The luciferase reporter gene assay reagents were obtained from Promega, Madison, Wis., and the assay was performed per manufacturer's instructions. […] Where appropriate, the transfection efficiency was measured by co-transfecting 2 μg of CMV-driven β-galactosidase expression vector and measuring enzymatic β-galactosidase activity (Ausubel et al., Current Protocols in Molecular Biology (John Wiley & Sons, Inc., New York, 1994)).

SMILES | effect on IL-2 reporter gene activation (IL-2 promoter) | effect on the inhibition of the interaction by FK506 [1]
C=CC[C@@H]1/C=C(\C)C[C@H](C)C[C@H](OC)[C@H]2O[C@@](O)(C(=O)C(=O)N3CCCC[C@H]3C(=O)O[C@H](/C(C)=C/[C@@H]3CC[C@@H](O)[C@H](OC)C3)[C@H](C)[C@@H](O)CC1=O)[C@H](C)C[C@@H]2OC [FK506, reference compound] | inhibited | 
CO[C@H]1C[C@@H]2CC[C@@H](C)[C@@](O)(O2)C(=O)C(=O)N2CCCC[C@H]2C(=O)O[C@H]([C@H](C)C[C@@H]2CC[C@@H](O)[C@H](OC)C2)CC(=O)[C@H](C)/C=C(\C)[C@@H](O)[C@@H](OC)C(=O)[C@H](C)C[C@H](C)/C=C/C=C/C=C/1C [rapamycin] |  | reverts the inhibitory effect of FK506 in a dose dependent manner; also recorded: antagonized
